Measurements as given in PubChem BioAssay AID2685 (National Center for Advancing Translational Sciences (NCATS), 2010).
Some of the results follow. Shown are side measurements of this screen, not its main read-out; they come without a call. Compounds called inactive in the main read-out are mostly missing here. The note in brackets gives the kind of curve behind each potency; many fits are weak.

Assay: qHTS Assay for Lipid Storage Modulators in Drosophila S3 Cells;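 for cell number change: cells counted by Cell Tracker Red CMTPX staining in the red channel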
Details: BODIPY lipid droplet fluorescence, 18-24 h; for cell number change: measured here: cell count max response, cells fed with added oleic acid
Summary of the method: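 Drosophila S3 cells loaded with oleic acid (400 uM, as added) and compounds at several concentrations; lipid droplets imaged by 488-nm laser-scanning cytometry, 500–530 nm intensity and object ratio to cell channel. Percent activity normalized to 20 uM Triacsin C.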

[1] = measured here: lipid fluorescence (Fed channel) AC50, cells fed with added oleic acid
[2] = measured here: cell number channel AC50, cells fed with added oleic acid

SMILES | cell number change [%] | AC50 [1] | AC50 [2]
CC(=O)c1ccc(NC(=O)C(C)Sc2nnnn2C)cc1 (centres undefined) | -3.17 | 0.00517 µM [falling, full curve, poor fit] | –
Cc1ccc(C)c(N2CCN(C(=O)C3CCN(S(=O)(=O)c4c(C)noc4C)CC3)CC2)c1 | -13.9 | 1.46 µM [falling, full curve] | –
Cc1nc(N2CCN(C(c3ccccc3)c3ccccc3)CC2)nc2c1C(=O)CCC2 | – | 0.58 µM [falling, full curve] | 5.17 µM [falling, single point]
Nc1nc2n(n1)C(c1ccco1)CC(c1ccc(Cl)c(Cl)c1)N2 (centres undefined) | -20.1 | – | –
O=C(Cn1cnnn1)OCC(=O)c1ccc(Cl)s1 | 9.85 | 0.58 µM [falling, full curve, poor fit] | –
Cc1ccc(NS(=O)(=O)c2ccc3c(c2)NC(=O)C(C)C(=O)N3)cc1C (centres undefined) | 18.7 | – | –
CCOC(=O)N1CCN(Cc2ccc(O)c3ncccc23)CC1 | -18.2 | 14.6 µM [falling, single point] | –
O=C(Nc1cccnc1)c1ccc(Cl)c(S(=O)(=O)N2CCCCCC2)c1 | -3.69 | – | –
CC1CCCC(C)N1C(=O)CN1CCN(c2nc(-c3ccc(F)cc3)cs2)CC1 (centres undefined) | -76 | 29.1 µM [falling, partial curve] | 29.1 µM [falling, single point]
O=C(CCC(=O)Nc1ccccc1)NNC(=O)c1ccccc1Cl | -15.6 | 5.17 µM [falling, partial curve] | –
Cc1cc(C(=O)NC(C)CCc2ccccc2)ccc1[N+](=O)[O-] (centres undefined) | -3.65 | – | –
CCN(CC)S(=O)(=O)c1ccc(C)c(NC(=O)Cc2ccc(S(=O)(=O)N3CCOCC3)s2)c1 | 8.5 | – | –
O=S(=O)(NC12CC3CC(CC(C3)C1)C2)c1ccc(F)cc1 | -8 | 6.51 µM [falling, single point] | –
CC(C)Oc1ccc(C2CC(=O)N(c3cccc(Br)c3)C2=O)cc1 (centres undefined) | 11.7 | – | 0.0058 µM [rising, full curve, poor fit]
Cc1ccccc1C(=O)NC(=S)NCCC1=CCCCC1 | -14.9 | – | –
Cc1cc(C)n(-c2c(F)c(F)c(CO)c(F)c2F)n1 | – | – | 0.58 µM [falling, single point]
Nc1n[nH]c2c1C1(CCCCC1)Cc1ccccc1-2 | -61.1 | 18.4 µM [falling, single point] | 20.6 µM [falling, single point]
C(=N\Nc1nc2ccccc2[nH]1)/c1c[nH]c2ccccc12 | -49.7 | 29.1 µM [falling, single point] | 16.4 µM [falling, partial curve]
Cc1cc(C)cc(OCC(=O)O/N=C(\N)Cc2ccc([N+](=O)[O-])cc2)c1 | 16.4 | 5.17 µM [falling, single point] | 2.59 µM [falling, single point]
COc1ccc(C(CNC(=O)c2ccc(-c3ccccc3)cc2)N(C)C)cc1OC (centres undefined) | 12.6 | 29.1 µM [falling, single point] | –
Cc1nn(C)cc1CN(C)C(=O)c1sc2cccc(Cl)c2c1Cl | -3.7 | 0.00461 µM [rising, full curve, poor fit] | –

Ordered by number of heavy atoms (ascending): some entries from above
SMILES | cell number change [%] | AC50 [1] | AC50 [2]
CC(=O)c1ccc(NC(=O)C(C)Sc2nnnn2C)cc1 (centres undefined) | -3.17 | 0.00517 µM [falling, full curve, poor fit] | –
Cc1nn(C)cc1CN(C)C(=O)c1sc2cccc(Cl)c2c1Cl | -3.7 | 0.00461 µM [rising, full curve, poor fit] | –
COc1ccc(C(CNC(=O)c2ccc(-c3ccccc3)cc2)N(C)C)cc1OC (centres undefined) | 12.6 | 29.1 µM [falling, single point] | –

Following part:

SMILES | cell number change [%] | AC50 [1] | AC50 [2]
Cc1c(N=C2SC(CC(=O)Nc3ccccc3)C(=O)N2CCN2CCOCC2)c(=O)n(-c2ccccc2)n1C (centres undefined) | – | 6.51 µM [rising, single point] | –
Cc1ccc(Cl)cc1NC(=O)C1CCCN(c2cnccn2)C1 (centres undefined) | – | 1.84 µM [falling, partial curve, poor fit] | –
CSCCC(NC(=O)c1ccco1)C(=O)N1CCC(C(N)=O)CC1 (centres undefined) | -23.2 | 3.26 µM [falling, full curve] | 6.51 µM [falling, single point]
COc1ccc(NC(=O)CN(C2CCCCC2)S(C)(=O)=O)cc1Cl | 52.4 | 6.51 µM [rising, single point] | 8.2 µM [rising, partial curve, poor fit]
CCCCN(C(=O)c1ccc(-n2nc(C)cc2C)cc1)c1c(N)n(CCC)c(=O)[nH]c1=O | -2.96 | 10.3 µM [falling, partial curve] | –
CC(C)(C)c1ccc(C(=O)CS(=O)(=O)c2ccccc2)cc1 | 14.7 | – | 1.64 µM [rising, partial curve, poor fit]
Cc1ccc(O)c(C=Nc2cc(C)ccc2O)c1 | – | 6.51 µM [falling, partial curve] | –
N#Cc1nc(Cc2ccccc2)oc1NCCCn1ccnc1 | -19.6 | 5.17 µM [falling, full curve, poor fit] | –
COc1cc2c(cc1OC)C(C(=O)N1CCCC1)C(c1ccccc1F)N(C)C2=O (centres undefined) | -70.5 | 5.17 µM [falling, full curve] | 4.11 µM [falling, full curve]
N#CCC(=O)N/N=C\c1cccc(OC/C=C/c2ccccc2)c1 | 5.57 | 6.51 µM [rising, partial curve, poor fit] | –
Cc1cccc(-c2noc(CN(C(=O)c3ccc(Br)o3)C(C)C)n2)c1 | – | 0.517 µM [rising, full curve] | 1.46 µM [rising, full curve]
COc1ccc(NC(=O)c2cccnc2NCCc2ccccc2)cc1 | 8.37 | 0.0164 µM [rising, full curve] | –
CCOc1cc(C2C3=C(CCCC3=O)NC3=C2C(=O)CCC3)ccc1OCCO | 9.94 | 29.1 µM [rising, single point] | –
O=C(NNc1nc2c(F)cccc2s1)C1=COCCO1 | -13 | 0.103 µM [falling, full curve, poor fit] | 0.116 µM [falling, full curve, poor fit]
C/C(=N\NC(=O)C(=O)Nc1c(C)n(C)n(-c2ccccc2)c1=O)c1ccc(Cl)s1 | – | 5.17 µM [falling, full curve] | 6.51 µM [falling, single point]
COc1cc(-c2nnc(NC(=O)CS(=O)(=O)c3ccc(F)cc3)o2)cc(OC)c1OC | 1.92 | 29.1 µM [rising, single point] | –
O=C(Cn1nc(C(=O)O)c2ccccc2c1=O)NCCC1=CCCCC1 | – | 1.84 µM [falling, partial curve] | –
O=C(NCCS(=O)(=O)NCc1ccc2c(c1)OCO2)c1ccccc1 | 17.5 | – | –
Cc1ccc(C)c(OCCC(=O)OCC(=O)N2CCN(c3ccccc3)CC2)c1 | 26.2 | 11.6 µM [falling, single point] | –
Cc1ccc(C2(C)NC(=O)N(CC(=O)N3CCN(S(=O)(=O)c4cccc(F)c4)CC3)C2=O)cc1 (centres undefined) | 20.7 | 1.84 µM [rising, partial curve] | –
Cc1oc2ccc(OCc3ccc(Br)cc3)cc2c1C(=O)O | -55.7 | 16.4 µM [falling, partial curve, poor fit] | 23.1 µM [falling, single point]

SMILES | cell number change [%] | AC50 [1] | AC50 [2]
CC(C)(C)c1nnc2sc(SCCN3C(=O)c4ccccc4C3=O)nn2c1=O | -1.56 | – | –
O=C(Oc1c(Br)cc([N+](=O)[O-])cc1Br)c1cccnc1 | -23 | 10.3 µM [falling, partial curve] | –
Cc1c(C(=O)NCCc2ccccc2)oc2ccccc12 | 4.5 | – | –
C=CCNc1nnc(Cl)c2ccccc12 | 12.2 | 23.1 µM [rising, single point] | –
NC(=O)Cn1nc([N+](=O)[O-])nc1Oc1ccccc1F | 2.54 | – | –
CCOc1ccc(C(=O)CCC(=O)NC(C)C(=O)OC)cc1 (centres undefined) | 25.8 | – | –
O=C(C1CCCN(S(=O)(=O)c2cc(Cl)ccc2Cl)C1)N1CCCCCC1 (centres undefined) | -13.6 | 8.2 µM [falling, partial curve, poor fit] | –
CS(=O)(=O)c1ccc2nc(NC(=O)C3CCCCC3)sc2c1 | 2.37 | 3.26 µM [rising, partial curve, poor fit] | –
CCOc1cccc(N(C(=O)c2ccco2)C(C(=O)NC2CCCC2)c2cccnc2)c1 (centres undefined) | 9.46 | – | –
O=C(COC(=O)/C=C/c1ccccc1Cl)NCc1ccco1 | -2.71 | 32.6 µM [rising, single point] | –
CN(CCc1ccccn1)C(=O)CC1C(=O)NCCN1Cc1cccc(F)c1 (centres undefined) | -13.5 | 0.146 µM [falling, full curve, poor fit] | –
COCC(=O)Nc1c(C(=O)Nc2ccc3c(c2)OCO3)oc2ccccc12 | 9.85 | 0.116 µM [falling, full curve, poor fit] | –
CC(=O)C1=C(O)C(=O)N(c2ccc(O)cc2)C1c1ccc(F)cc1 (centres undefined) | 11.6 | – | –
CCc1cc(-c2[nH]ncc2-c2ccc([N+](=O)[O-])cc2)c(O)cc1OC | -52.9 | – | 29.1 µM [falling, single point]
Cc1sc(NC(=O)c2ccc3ncsc3c2)c(C(N)=O)c1C | 35.1 | – | 1.16 µM [rising, full curve, poor fit]
COc1cccc(NC(=O)C(OC(=O)c2ccc([N+](=O)[O-])o2)c2ccccc2)c1 (centres undefined) | -1 | 1.84 µM [rising, partial curve] | –
CCn1c(C)nc([N+](=O)[O-])c1Sc1ccc(F)cc1 | -10.4 | 29.1 µM [falling, single point] | –
NS(=O)(=O)c1ccc(CCNCc2cc(Br)ccc2OCc2ccccc2F)cc1 | -34.3 | 25.9 µM [falling, single point] | 18.4 µM [falling, single point]
O=S(=O)(c1ccc2oc3ccc(S(=O)(=O)N4CCCCC4)cc3c2c1)N1CCCCC1 | 14 | 6.51 µM [rising, full curve, poor fit] | –
